From the supplement of paper PMC6411743 come the findings set out here.

The assay addresses T1, UniProt Q96JY6 and related entries.
T1 sequence (whole entry): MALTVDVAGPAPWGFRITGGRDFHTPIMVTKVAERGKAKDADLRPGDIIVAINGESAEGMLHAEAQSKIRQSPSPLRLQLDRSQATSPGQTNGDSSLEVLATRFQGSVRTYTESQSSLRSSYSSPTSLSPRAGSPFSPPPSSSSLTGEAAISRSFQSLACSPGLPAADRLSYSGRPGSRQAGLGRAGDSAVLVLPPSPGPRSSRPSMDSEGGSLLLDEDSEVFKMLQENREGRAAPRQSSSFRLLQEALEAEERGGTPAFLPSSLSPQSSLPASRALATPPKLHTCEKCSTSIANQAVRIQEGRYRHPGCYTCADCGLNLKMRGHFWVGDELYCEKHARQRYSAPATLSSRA
The assay is described as follows: NP40-soluble protein abundance relative to vehicle (solubility fold change) (ratio); higher = more soluble protein in presence of GTP. As to the method: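 Solubility proteome profiling in Jurkat crude lysate. Lysate was treated with Mg-GTP (0.1-10 mM) for 10 min at room temperature and 3 min at 37 °C, then solubilised with 0.8% NP40 and benzonase, followed by ultracentrifugation. Proteins were quantified by TMT10 LC-MS/MS; the value is the NP40-soluble abundance relative to the NP40-processed vehicle, from 3 independent experiments.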

± gives the standard deviation of the averaged measurements. The list shows a part of the results.

On to `Nc1nc2c(ncn2[C@@H]2O[C@H](COP(=O)(O)OP(=O)(O)OP(=O)(O)O)[C@@H](O)[C@H]2O)c(=O)[nH]1` [guanosine triphosphate], for which the NP40-soluble protein abundance was 0.99 ± 0.071 (concentration: 0.1mM); 0.996 ± 0.042 (concentration: 0.5mM); 1.03 ± 0.074 (concentration: 1mM); 1.02 ± 0.057 (concentration: 2mM); 0.981 ± 0.089 (concentration: 4mM); 1.02 ± 0.09 (concentration: 6mM). For the same compound, the NP40-soluble protein abundance reads like this: (concentration: 8mM) 1.03 ± 0.081; (concentration: 10mM) 1.03 ± 0.015.
